# PubChem BioAssay AID1259424 | University of Nebraska Medical Center, 2018
# Screen: 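Rank knockdowns across the genome by resemblance to the KSR1 depletion profile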 (primary screen)
# Cell system: human HCT116 colon cancer cells
# Reagent: siRNA pool against human genes, 50 nM
# Measurement: 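Six signature mRNAs by branched-DNA multiplex assay, scaled to two housekeeping genes and non-targeting median, log2; matched to mean KSR1 knockdown profile by Pearson correlation and euclidean distance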
# Scale: mean correlation with KSR1 profile and KSR1 correlation: higher = expression change more like KSR1 knockdown; mean distance from KSR1 profile: higher = expression change less like KSR1 knockdown
# The deposit covers about 14,000 reagents; below is a random part of them. 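Higher correlation or smaller distance means closer resemblance to KSR1 loss; control wells, including KSR1 knockdowns, recur on many plates.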 Not stated in the record: the time to read-out.
target gene,mean correlation with KSR1 profile,mean distance from KSR1 profile,"KSR1 correlation, replicate 1","KSR1 correlation, replicate 2","KSR1 correlation, replicate 3"
TREM1 (triggering receptor expressed on myeloid cells 1),-0.177,3.81,-0.229,-0.158,-0.259
"C19orf48P (chromosome 19 open reading frame 48, pseudogene)",0.247,1.84,0.186,0.102,0.147
TMCC3 (transmembrane and coiled-coil domain family 3),-0.725,5.23,-0.319,-0.42,-0.407
APOD (apolipoprotein D),0.44,1.13,0.475,0.379,0.286
"RADX (RPA1 related single stranded DNA binding protein, X-linked)",0.0923,1.56,0.388,0.0218,-0.0972
GAS2 (growth arrest specific 2),-0.233,2.62,-0.303,-0.407,-0.291
AURKB (aurora kinase B),0.461,2.38,0.733,0.104,-0.0842
CD28 (CD28 molecule),-0.264,1.92,-0.135,-0.465,-0.156
IFNW1 (interferon omega 1),-0.238,5.51,-0.183,-0.229,-0.343
ADAM17 (ADAM metallopeptidase domain 17),-0.00139,1.87,0.128,-0.0319,-0.256
BASP1 (brain abundant membrane attached signal protein 1),-0.621,2.25,-0.878,-0.675,-0.425
RCC2 (regulator of chromosome condensation 2),0.197,1.58,-0.101,-0.0434,0.288
"PIN4 (peptidylprolyl cis/trans isomerase, NIMA-interacting 4)",0.0509,1.55,0.116,0.418,-0.0958
MGC13053 (retired record),-0.075,2.38,0.0549,-0.302,-0.187
CFLAR (CASP8 and FADD like apoptosis regulator),-0.253,3.13,-0.195,-0.195,-0.404
RUSC2 (RUN and SH3 domain containing 2),0.144,4.34,0.084,0.129,0.134
ADAM32 (ADAM metallopeptidase domain 32),0.23,2.55,0.129,0.166,0.272
LAMP1 (lysosome associated membrane protein 1),-0.725,2.92,-0.814,-0.756,-0.593
ITGA9 (integrin subunit alpha 9),-0.59,2.13,-0.665,-0.418,-0.289
RBKS (ribokinase),0.631,0.972,0.789,-0.108,0.702
"ALKBH3 (alkB homolog 3, alpha-ketoglutarate dependent dioxygenase)",-0.0394,1.57,0.185,-0.187,-0.386
PDK4 (pyruvate dehydrogenase kinase 4),-0.147,1.95,0.607,-0.284,-0.212
PTPRZ1 (protein tyrosine phosphatase receptor type Z1),-0.039,1.93,-0.0243,-0.207,0.332
PMF1 (polyamine modulated factor 1),-0.454,1.42,-0.103,-0.588,-0.535
DKK2 (dickkopf Wnt signaling pathway inhibitor 2),0.509,1.62,0.489,0.406,0.342
CALML3 (calmodulin like 3),-0.313,4.46,-0.189,-0.295,-0.445
TRMT1 (tRNA methyltransferase 1),-0.625,2.79,-0.541,-0.348,-0.615
MASP1 (MBL associated serine protease 1),-0.311,1.89,-0.186,-0.0614,-0.32
MAGEA10 (MAGE family member A10),-0.23,2.76,-0.145,-0.37,-0.437
NOL7 (nucleolar protein 7),-0.458,3.21,-0.7,-0.0787,-0.1
BDKRB1 (bradykinin receptor B1),0.85,1.69,0.683,0.788,0.96
LMNB1 (lamin B1),0.143,1.63,0.0722,-0.11,0.159
GPR161 (G protein-coupled receptor 161),0.682,1.42,0.536,0.838,0.624
NAP1L3 (nucleosome assembly protein 1 like 3),0.269,1.22,0.434,0.268,0.262
EMP2 (epithelial membrane protein 2),-0.68,2.23,-0.743,-0.784,-0.688
GSTM3 (glutathione S-transferase mu 3),0.0999,1.69,0.247,-0.139,0.0358
SRPX2 (sushi repeat containing protein X-linked 2),0.619,1.13,0.42,0.617,0.42
H4C1 (H4 clustered histone 1),-0.643,1.47,-0.444,-0.858,-0.637
ERMN (ermin),-0.671,5.33,-0.157,-0.181,-0.419
CEACAM3 (CEA cell adhesion molecule 3),0.243,2.32,0.339,0.0572,0.116
VPS50 (VPS50 subunit of EARP/GARPII complex),-0.631,1.12,-0.247,-0.445,-0.724
LINC00260 (long independently transcribed non-coding RNA 260),-0.309,3.2,-0.55,-0.1,-0.541
CTAG1B (cancer/testis antigen 1B),0.372,5.86,0.314,0.132,0.531
HNRNPR (heterogeneous nuclear ribonucleoprotein R),0.0447,1.52,0.157,-0.0527,0.0778
HAUS5 (HAUS augmin like complex subunit 5),0.408,2.9,0.416,0.55,0.264
DNTTIP1 (deoxynucleotidyltransferase terminal interacting protein 1),0.0688,4.61,0.164,-0.0671,-0.147
CKS2 (CDC28 protein kinase regulatory subunit 2),0.65,1.91,0.815,0.152,0.0581
ABCC5 (ATP binding cassette subfamily C member 5),-0.343,2.21,-0.42,-0.509,-0.277
CDKL5 (cyclin dependent kinase like 5),-0.182,2.86,-0.538,-0.441,0.0778
ACR (acrosin),-0.345,3,-0.225,-0.343,-0.329
RCOR3 (REST corepressor 3),-0.242,2.26,-0.147,-0.197,-0.376
KLF14 (KLF transcription factor 14),0.0428,3.08,0.224,0.0379,0.0181
RIN1 (Ras and Rab interactor 1),0.872,0.912,0.744,0.818,0.715
STXBP5L (syntaxin binding protein 5L),-0.196,4.12,0.159,0.00345,-0.56
DGKD (diacylglycerol kinase delta),0.205,1.82,0.159,-0.0144,0.0186
VANGL2 (VANGL planar cell polarity protein 2),0.0761,3.88,-0.00462,0.183,0.6
SLC22A8,-0.102,1.58,-0.0272,-0.00334,-0.0307
"POLE3 (DNA polymerase epsilon 3, accessory subunit)",0.316,1.33,0.627,-0.381,0.26
HDAC3 (histone deacetylase 3),-0.143,2.51,0.0467,-0.453,-0.451
DHH (desert hedgehog signaling molecule),0.437,2.45,0.121,0.564,0.627
RIOK1 (RIO kinase 1),0.44,2.24,0.444,0.49,-0.268
DNAJB14 (DnaJ heat shock protein family (Hsp40) member B14),0.589,1.91,0.594,0.708,0.422
"PSMC5 (proteasome 26S subunit, ATPase 5)",-0.555,4.27,-0.558,-0.542,-0.556

3 entries from above in another layout:
target gene | mean correlation with KSR1 profile | mean distance from KSR1 profile | KSR1 correlation, replicate 1 | KSR1 correlation, replicate 2 | KSR1 correlation, replicate 3
TREM1 (triggering receptor expressed on myeloid cells 1) | -0.177 | 3.81 | -0.229 | -0.158 | -0.259
C19orf48P (chromosome 19 open reading frame 48, pseudogene) | 0.247 | 1.84 | 0.186 | 0.102 | 0.147
TMCC3 (transmembrane and coiled-coil domain family 3) | -0.725 | 5.23 | -0.319 | -0.42 | -0.407
